For at least one entry, the source does not settle the construct or the ends of the probe. At least one verdict rests on a figure or table, not on a statement of the authors.
Test system: mB*UbxWT (myc-BirA*-GGSGG-Ubx isoform Ia)
Assay: EMSA
Conditions: 20 mM HEPES pH 7.9, 1.4 mM MgCl2, 1 mM ZnSO4, 40 mM KCl, 0.1 mM EDTA, 5% glycerol, 0.2 ug poly(dI-dC), 0.1 ug BSA, 10 mM DTT, 0.1% NP40, 30 ul, 20 min; recombinant protein; residues 1-380; protein details: His, myc-BirA* (N-terminal fusion); label: 5'-Cy5

Sequence: TTCAGAGCGAATGATTTATGACCGGTCAAG (double strand) [Ubx consensus site probe]
- binding result: binds

From publication PMC7069958
